# Experimental data: patent publication US20250177366A1, “COMPOSITIONS AND METHODS FOR ALLEVIATING PAIN AND REDUCING ADVERSIVENESS OF STIMULI” (UNIVERSITY OF WASHINGTON, priority 2021, published 2025)
# At least one structure is not confirmed: it was looked up by name or label, or the drawing left a doubt.
# What was measured:
# Format in all cases: in vivo, Zebrafish (Danio rerio)
# [1] = system: larval zebrafish; assay: AITC aversion assay (chemical attraction/aversion, AITC-infused agarose); settings: AITC 100 mM in agarose
# From the text: Whether the effects of AS1 extended beyond noxious temperature sensation or could also impact other somatosensory modalities was next explored. To accomplish this, a chemical attraction/aversion assay where a thin layer of agarose was deposited along the edges of a square arena (Jordi et al., Sci. Adv. 2018; 4:1-15) were adapted. Along one wall, the agarose contained the chemical to be tested, while the other three walls were lined with control agarose. It was anticipated that a chemical gradient would be established as chemical diffused from the agarose into the surrounding water. Larvae were pre-incubated in either vehicle or AS1 and then added to the arena and the distance of each larva from the chemical-infused agarose was measured. In control experiments where all four walls of the arena were lined with agarose only, AS1 and vehicle-treated larvae were dispersed evenly throughout the arena (FIG. 3). […] When the nociceptive chemical AITC (100 mM, 10,000× maximal effective dose) was tested, vehicle-treated larvae swam away from the AITC source.
# Chemical attraction/aversion assays. The agarose attraction/aversion assay was adapted from previously described experiments (Jordi et al., Sci. Adv. 2018; 4:1-15). […] Swimming behavior was immediately recorded for 20 minutes using the same high-definition camcorder in the thermal preference assays.
# [2] = system: larval zebrafish; assay: Light/dark preference (phototaxis) assay
# Protocol: Following this, whether the effects of AS1 were restricted to somatosensation or were generalizable to other aversive stimuli were tested. Thus, the effects of AS1 on light/dark preference were tested. Zebrafish larvae prefer white light environments to dark environments and this preference is inhibited by anxiolytics, analagous to studies in rodents (Lau et al., Proc. Natl. Acad. Sci. U.S.A 2011; 108:2581-2586; Burgess et al., Curr. Biol. 2010; 20:381-386). To measure light/dark preference, larval zebrafish were placed in a square arena and given the choice between a bright white light and total darkness, and the number of larvae on each side was quantified at 30 second intervals. Five 4-minute trials were performed, where the light and dark sides of the arena were reversed between trials. […]
# Light/dark preference (phototaxis) assay. […] A total of five four-minute trials, with the dark/light halves automatically switching position between trials, were recorded. […]
# In all experiments, an initial still frame of video was taken during the minute where the blank slide was presented in order to quantify the total number of fish in the experiment. Following this, still frames were taken at 30 second intervals for each trial ([…]), and the number of fish present in the light half of the arena were counted. […]
# [3] = system: larval zebrafish; assay: Thermal preference assay (28.5° C. vs 37.5° C.), non-sensitized
# Protocol: Thermal preference assay. […] Once an entire plate was loaded with fish, the appropriate incubation solution was added. […] Following incubation in all experiments, the choice testing plate was transported to a dual solid-state heat/cool plate (AHP-1200° C. P; Teca) and centered such that half of each arena was positioned over each side of the heat/cool plate. […] Locomotor behavior was recorded using a Canon high-definition video camcorder suspended at a fixed position above the choice testing plate. Each trial was four minutes in duration.
# For single-incubation assays (e.g. testing single chemicals), larval zebrafish were caught in 100 μL E2 media and 100 μL of the control (2% DMSO) or test chemical at 2× concentration was added to each well to achieve the final desired concentration. […] The final DMSO concentration in all solutions was 1%.
smiles,measurement,setting,value
CN1CCc2cc(Cl)c(O)cc2[C@@H](c2ccccc2)C1 [SCH23390],effect of co-applied drug on AS1-induced attraction to AITC,[1]; drug + AS1 (5 μM; 2.5 μM with SKF and sumanirole),attenuated AS1-mediated attraction to AITC in a dose-dependent manner
same,"AITC aversion, drug alone",[1]; without AS1,had no effect upon aversive behavior in response to the chemical irritant AITC
same,effect of co-applied drug on AS1-induced preference for the dark,[2]; drug + 2.5 μM AS1,intermediate-high doses blocking AS1-induced preference for the dark
same,"light/dark preference, drug alone",[2]; without AS1,significantly decrease light preference in the absence of AS1
same,effect of co-applied drug on swimming velocity of AS1-treated fish,"[3]; 28.5 and 37.5° C. zones, drug + 5 μM AS1",decrease the heightened velocity at 28.5 °C induced by AS1 in a dose-dependent manner
same,effect of co-applied drug on AS1-induced attraction to noxious heat,"[3]; 28.5° C. vs 37.5° C., drug + 5 μM AS1",partially restored aversion to noxious heat in the presence of AS1
same,"temperature choice, drug alone","[3]; 28.5° C. vs 37.5° C., without AS1",without eliciting effects at baseline
